# Experimental data taken from US20110123512A1, “METHOD OF REGULATING THE HEAT SHOCK RESPONSE” (priority 2008, published 2011).
# Some results were stated once for a whole list of compounds, not compound by compound.
# Tested on: C. elegans
# Experiment: anesthesia: inhibition of movement and recovery
# Type: in vivo
# Details: following VA exposure; 100% of the animals had recovered
# Description: The VA anesthetics used were 2-Bromo-2-chloro-1,1,1-trifluoroethane (Halothane, Fluka, catalog #16730) and Isoflurane (Webster Veterinary NDC#14043-220-05). VA anesthetics were delivered as follows: lids of 1.5 ml eppendorf tubes were cut off, VA was pipetted into the lids, and the lids containing VAs were placed onto plates containing 10 adult wild-type or gcy-8 animals grown as described, and the plates were immediately sealed with parafilm. To inhibit neuronal signaling during the course of heat shock, the VA containing lids were placed on plates 5 minutes prior to the heat shock, and retained during the heat shock treatment of 34° C. for 15 minutes. The lids were then removed 10 minutes post-heat shock during recovery at 20° C., when the plates had equilibrated to 20° C. To inhibit neuronal signaling following the administration of heat shock, animals were heat shocked, and then the lids containing the same volume of VA was placed onto plates 20 minutes post-heat shock, and removed after 30 minutes.
# As has been described before, the effect of the VA is extremely variable in any given population of C. elegans (15, 16) and is also influenced by other environmental factors, such as population density, to which the animals are exposed (15). Therefore it was necessary to titrate the amount of VA used for each experiment. […]
compound,measurement,value
"FC(F)(F)C(Cl)Br (stereo not shown) [halothane, 2-Bromo-2-chloro-1,1,1-trifluoroethane]",time to recovery from the effects of the anesthesia (actively moving on plates),≤ 1 h
